The values below come from patent US20220010020A1 (Five Prime, published 2022).

Results are given in words; binding and its absence hold for the method and conditions named. Binding calls can cover weak binding; strength is not graded here.

In assay [1] the target is FGFR2-IIIb (fibroblast growth factor receptor 2 IIIb splice form) (human). The assay can be described thus: Biacore. A general note: SPR reads the build-up and loss of mass on a sensor chip optically.
The target is the same in assay [2]. The assay can be described thus: Biacore and blocking ELISA.

B1: anti-FGFR2-IIIb antibody (afucosylated, humanized IgG1 monoclonal antibody), control sample incubated without hydrogen peroxide (antibody, V domains shown)
VH: QVQLVQSGAEVKKPGSSVKVSCKASGYIFTTYNVHWVRQAPGQGLEWIGSIYPDNGDTSYNQNFKGRATITADKSTSTAYMELSSLRSEDTAVYYCARGDFAYWGQGTLVTVSS
VL: DIQMTQSPSSLSASVGDRVTITCKASQGVSNDVAWYQQKPGKAPKLLIYSASYRYTGVPSRFSGSGSGTDFTFTISSLQPEDIATYYCQQHSTTPYTFGQGTKLEIKR
notes: also called αFGFR2b; Sample 1
Take B1: the binding result in assay [1] is “binds”.

B2: anti-FGFR2-IIIb antibody incubated with 0.01% hydrogen peroxide overnight at room temperature (force oxidized) (antibody, human IgG1, kappa, V domains shown)
VH: B1 VH
VL: B1 VL
notes: Same antibody as m1 after peroxide treatment; also called +0.01% H2O2; 0.01% H2O2
B2: the binding result in assay [1] and in assay [2] was “binds” each time.

B3: anti-FGFR2-IIIb antibody incubated with 0.1% hydrogen peroxide overnight at room temperature (force oxidized) (antibody, human IgG1, kappa, V domains shown)
VH: B1 VH
VL: B1 VL
notes: Same antibody as m1 after peroxide treatment; also called +0.1% H2O2; 0.1% H2O2
On to B3, for which the binding result in assay [1] and in assay [2] was “binds” each time.

B4: anti-FGFR2-IIIb antibody incubated with 1.0% hydrogen peroxide overnight at room temperature (force oxidized) (antibody, human IgG1, kappa, V domains shown)
VH: B1 VH
VL: B1 VL
notes: Same antibody as m1 after peroxide treatment; also called +1.0% H2O2; 1.0% H2O2
On to B4, for which the binding result in assay [1] and in assay [2] was “binds” in each case.
